Reference: publication PMC6857588
These are yes or no findings as the source states them, for the method shown. Some binding calls cover weakened binding; strength is not graded here.

Amino acid sequences for entries named in this document (tags omitted). A change or cut given only in a name is not applied to a line headed by its entry. Chains listed by the source or under a name are the forms on record and can include a tag or linker.
wild-type NMY-2 HMM fragment (heavy chain alone) (G5EBY3, form named): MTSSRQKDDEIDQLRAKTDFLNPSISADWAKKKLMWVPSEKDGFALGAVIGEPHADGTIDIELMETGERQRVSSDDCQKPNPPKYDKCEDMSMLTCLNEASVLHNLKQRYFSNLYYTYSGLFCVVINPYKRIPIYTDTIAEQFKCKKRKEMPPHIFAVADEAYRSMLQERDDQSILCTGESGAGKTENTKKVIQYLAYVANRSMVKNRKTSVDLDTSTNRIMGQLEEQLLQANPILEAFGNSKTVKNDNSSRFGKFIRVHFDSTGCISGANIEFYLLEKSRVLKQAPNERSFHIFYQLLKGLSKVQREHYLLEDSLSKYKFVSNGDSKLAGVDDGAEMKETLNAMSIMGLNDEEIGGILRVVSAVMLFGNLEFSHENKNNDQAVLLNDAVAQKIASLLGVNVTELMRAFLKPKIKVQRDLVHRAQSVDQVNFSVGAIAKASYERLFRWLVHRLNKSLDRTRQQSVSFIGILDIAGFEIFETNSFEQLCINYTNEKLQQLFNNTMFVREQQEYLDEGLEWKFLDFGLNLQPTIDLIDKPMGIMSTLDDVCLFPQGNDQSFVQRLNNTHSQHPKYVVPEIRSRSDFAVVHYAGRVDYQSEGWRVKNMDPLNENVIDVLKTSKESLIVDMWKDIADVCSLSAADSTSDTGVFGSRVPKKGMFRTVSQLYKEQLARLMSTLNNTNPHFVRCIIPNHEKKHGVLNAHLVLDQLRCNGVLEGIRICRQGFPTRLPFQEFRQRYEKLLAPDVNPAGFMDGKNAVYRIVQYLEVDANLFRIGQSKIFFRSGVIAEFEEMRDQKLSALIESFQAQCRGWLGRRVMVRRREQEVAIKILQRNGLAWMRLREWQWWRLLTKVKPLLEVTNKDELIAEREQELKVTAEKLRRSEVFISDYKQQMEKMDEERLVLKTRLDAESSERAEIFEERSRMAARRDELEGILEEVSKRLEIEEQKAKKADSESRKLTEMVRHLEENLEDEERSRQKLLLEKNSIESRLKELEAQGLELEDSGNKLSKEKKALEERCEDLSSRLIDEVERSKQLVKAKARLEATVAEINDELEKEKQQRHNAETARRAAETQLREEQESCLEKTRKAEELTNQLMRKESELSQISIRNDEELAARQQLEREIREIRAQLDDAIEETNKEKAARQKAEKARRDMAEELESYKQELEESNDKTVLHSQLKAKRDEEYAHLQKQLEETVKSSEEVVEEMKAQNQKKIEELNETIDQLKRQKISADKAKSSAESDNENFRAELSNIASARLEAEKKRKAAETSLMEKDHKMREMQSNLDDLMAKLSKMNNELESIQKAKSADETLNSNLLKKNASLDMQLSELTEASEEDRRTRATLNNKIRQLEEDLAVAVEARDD
NMY-2 S1 fragment S251A (heavy chain alone) (G5EBY3, form named): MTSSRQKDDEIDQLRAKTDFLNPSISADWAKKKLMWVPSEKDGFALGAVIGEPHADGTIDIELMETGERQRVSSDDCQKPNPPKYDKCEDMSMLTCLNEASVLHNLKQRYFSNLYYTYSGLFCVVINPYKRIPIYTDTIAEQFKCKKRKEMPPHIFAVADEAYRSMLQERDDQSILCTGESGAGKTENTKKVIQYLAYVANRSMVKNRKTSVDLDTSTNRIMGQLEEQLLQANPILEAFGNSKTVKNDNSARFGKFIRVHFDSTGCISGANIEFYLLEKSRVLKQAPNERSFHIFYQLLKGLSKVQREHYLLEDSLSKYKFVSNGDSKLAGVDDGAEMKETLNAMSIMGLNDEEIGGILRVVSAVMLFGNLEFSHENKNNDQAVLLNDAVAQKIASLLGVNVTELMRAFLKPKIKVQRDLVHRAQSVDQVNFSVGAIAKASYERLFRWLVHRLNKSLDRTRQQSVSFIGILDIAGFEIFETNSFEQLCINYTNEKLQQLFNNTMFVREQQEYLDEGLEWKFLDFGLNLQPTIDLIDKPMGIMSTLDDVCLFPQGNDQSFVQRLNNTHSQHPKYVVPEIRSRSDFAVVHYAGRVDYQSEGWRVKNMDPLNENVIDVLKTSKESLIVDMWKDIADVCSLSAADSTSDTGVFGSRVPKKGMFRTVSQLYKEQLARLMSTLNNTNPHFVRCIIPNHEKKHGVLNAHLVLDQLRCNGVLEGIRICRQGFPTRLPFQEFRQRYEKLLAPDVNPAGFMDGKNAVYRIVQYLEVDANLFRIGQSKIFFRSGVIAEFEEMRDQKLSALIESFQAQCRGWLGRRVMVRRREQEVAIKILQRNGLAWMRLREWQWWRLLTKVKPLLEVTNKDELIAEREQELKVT
NMY-2 S1 fragment R252A (heavy chain alone) (G5EBY3, form named): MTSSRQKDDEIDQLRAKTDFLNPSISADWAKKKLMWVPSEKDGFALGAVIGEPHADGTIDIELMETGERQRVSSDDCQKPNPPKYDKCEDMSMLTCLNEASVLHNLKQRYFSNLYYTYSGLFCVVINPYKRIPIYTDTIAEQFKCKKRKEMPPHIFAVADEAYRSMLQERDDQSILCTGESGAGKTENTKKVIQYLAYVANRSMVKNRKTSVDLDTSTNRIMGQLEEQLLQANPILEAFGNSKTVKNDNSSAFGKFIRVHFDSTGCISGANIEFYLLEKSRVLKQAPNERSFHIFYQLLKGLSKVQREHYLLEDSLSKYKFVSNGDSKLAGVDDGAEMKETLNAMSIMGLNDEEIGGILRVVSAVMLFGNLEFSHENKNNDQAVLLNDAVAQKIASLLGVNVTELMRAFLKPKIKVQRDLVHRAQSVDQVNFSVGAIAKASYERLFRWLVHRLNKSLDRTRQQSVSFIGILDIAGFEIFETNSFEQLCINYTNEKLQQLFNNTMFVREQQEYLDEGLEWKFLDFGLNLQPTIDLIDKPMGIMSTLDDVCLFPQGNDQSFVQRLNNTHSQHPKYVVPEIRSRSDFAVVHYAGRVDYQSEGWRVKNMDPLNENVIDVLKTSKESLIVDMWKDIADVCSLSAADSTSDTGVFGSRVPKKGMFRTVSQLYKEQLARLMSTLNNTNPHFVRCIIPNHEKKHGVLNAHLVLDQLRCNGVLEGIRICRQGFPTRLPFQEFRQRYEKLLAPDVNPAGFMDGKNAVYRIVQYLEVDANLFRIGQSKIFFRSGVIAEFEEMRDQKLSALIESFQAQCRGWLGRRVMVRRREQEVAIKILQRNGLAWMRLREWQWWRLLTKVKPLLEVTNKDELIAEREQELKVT
wild-type NMY-2 S1 fragment (heavy chain alone) (G5EBY3, form named): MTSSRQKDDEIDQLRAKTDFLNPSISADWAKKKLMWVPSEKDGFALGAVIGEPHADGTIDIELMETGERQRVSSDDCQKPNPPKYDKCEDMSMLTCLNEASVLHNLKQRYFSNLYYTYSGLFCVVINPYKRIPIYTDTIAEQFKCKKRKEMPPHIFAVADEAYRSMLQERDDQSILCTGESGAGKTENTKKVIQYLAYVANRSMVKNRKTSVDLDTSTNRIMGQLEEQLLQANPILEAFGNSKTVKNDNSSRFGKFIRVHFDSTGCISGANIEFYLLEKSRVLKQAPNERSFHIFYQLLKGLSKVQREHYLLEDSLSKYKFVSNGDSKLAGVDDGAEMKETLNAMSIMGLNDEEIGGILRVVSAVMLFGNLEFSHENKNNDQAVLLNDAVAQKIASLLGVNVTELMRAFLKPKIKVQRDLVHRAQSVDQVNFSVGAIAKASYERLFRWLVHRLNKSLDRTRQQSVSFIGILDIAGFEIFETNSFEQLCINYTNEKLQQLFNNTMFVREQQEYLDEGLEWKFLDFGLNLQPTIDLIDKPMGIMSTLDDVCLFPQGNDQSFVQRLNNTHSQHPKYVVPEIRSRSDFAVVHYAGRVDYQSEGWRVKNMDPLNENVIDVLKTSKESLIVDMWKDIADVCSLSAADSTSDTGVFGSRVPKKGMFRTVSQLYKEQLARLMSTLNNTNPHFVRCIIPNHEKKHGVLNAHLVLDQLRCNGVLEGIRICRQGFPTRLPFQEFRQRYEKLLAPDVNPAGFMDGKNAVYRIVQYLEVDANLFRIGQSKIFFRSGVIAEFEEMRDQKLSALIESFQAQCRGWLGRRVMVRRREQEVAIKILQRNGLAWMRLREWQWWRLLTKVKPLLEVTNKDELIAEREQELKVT

What was measured:
[1] = target: T1, myosin regulatory light chain MLC-4 (C. elegans) (UniProt Q09510); assay: co-purification (tandem Strep-Tactin and Ni-NTA affinity chromatography); co-expressed in Sf21 cells; lysate on Strep-Tactin Sepharose (StrepTagII on MLC-4 and MLC-5), eluate on Ni-NTA beads (6xHis on the NMY-2 HMM fragment), 500 mM NaCl
T1 sequence: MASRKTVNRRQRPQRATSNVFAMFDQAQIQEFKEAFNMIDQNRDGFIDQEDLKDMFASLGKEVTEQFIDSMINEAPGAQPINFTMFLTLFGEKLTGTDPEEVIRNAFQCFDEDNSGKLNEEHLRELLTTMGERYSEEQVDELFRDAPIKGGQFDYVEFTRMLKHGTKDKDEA

[2] = target: T2, myosin essential light chain MLC-5 (C. elegans) (UniProt Q9XVI9); assay: as above
T2 sequence: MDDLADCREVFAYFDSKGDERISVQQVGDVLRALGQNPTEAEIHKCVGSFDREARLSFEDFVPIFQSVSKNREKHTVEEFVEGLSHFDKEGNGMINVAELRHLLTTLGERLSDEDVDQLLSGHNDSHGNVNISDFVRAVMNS

[3] = target: T1, myosin regulatory light chain MLC-4 (C. elegans); assay: co-purification (Strep-Tactin affinity chromatography, then SEC); co-expressed in Sf21 cells; lysate on Strep-Tactin Sepharose (StrepTagII on MLC-4 and MLC-5), washes with 500 mM NaCl, then Superose 6 increase 10/300
[4] = target: T2, myosin essential light chain MLC-5 (C. elegans); assay: as above

| binding [1] | binding [2] | binding [3] | binding [4] | Substance |
| --- | --- | --- | --- | --- |
| binds | binds | – | – | wild-type NMY-2 HMM fragment (heavy chain alone) (from UniProt G5EBY3 1-1364) (domain or fragment) |
| – | – | binds | binds | NMY-2 S1 fragment S251A (heavy chain alone) (from UniProt G5EBY3 1-874) (domain or fragment) |
| – | – | binds | binds | NMY-2 S1 fragment R252A (heavy chain alone) (from UniProt G5EBY3 1-874) (domain or fragment) |
| – | – | binds | binds | wild-type NMY-2 S1 fragment (heavy chain alone) (from UniProt G5EBY3 1-874) (domain or fragment) |
